Reference: PMC10742334
No constants are given. Whether binding was seen depends on the method and setting. Binding seen in cells or lysates may run through a third protein. Some binding calls cover weakened binding; strength is not graded here.

Amino acid sequences for entries named in this document (tags omitted).
UniProt P12814: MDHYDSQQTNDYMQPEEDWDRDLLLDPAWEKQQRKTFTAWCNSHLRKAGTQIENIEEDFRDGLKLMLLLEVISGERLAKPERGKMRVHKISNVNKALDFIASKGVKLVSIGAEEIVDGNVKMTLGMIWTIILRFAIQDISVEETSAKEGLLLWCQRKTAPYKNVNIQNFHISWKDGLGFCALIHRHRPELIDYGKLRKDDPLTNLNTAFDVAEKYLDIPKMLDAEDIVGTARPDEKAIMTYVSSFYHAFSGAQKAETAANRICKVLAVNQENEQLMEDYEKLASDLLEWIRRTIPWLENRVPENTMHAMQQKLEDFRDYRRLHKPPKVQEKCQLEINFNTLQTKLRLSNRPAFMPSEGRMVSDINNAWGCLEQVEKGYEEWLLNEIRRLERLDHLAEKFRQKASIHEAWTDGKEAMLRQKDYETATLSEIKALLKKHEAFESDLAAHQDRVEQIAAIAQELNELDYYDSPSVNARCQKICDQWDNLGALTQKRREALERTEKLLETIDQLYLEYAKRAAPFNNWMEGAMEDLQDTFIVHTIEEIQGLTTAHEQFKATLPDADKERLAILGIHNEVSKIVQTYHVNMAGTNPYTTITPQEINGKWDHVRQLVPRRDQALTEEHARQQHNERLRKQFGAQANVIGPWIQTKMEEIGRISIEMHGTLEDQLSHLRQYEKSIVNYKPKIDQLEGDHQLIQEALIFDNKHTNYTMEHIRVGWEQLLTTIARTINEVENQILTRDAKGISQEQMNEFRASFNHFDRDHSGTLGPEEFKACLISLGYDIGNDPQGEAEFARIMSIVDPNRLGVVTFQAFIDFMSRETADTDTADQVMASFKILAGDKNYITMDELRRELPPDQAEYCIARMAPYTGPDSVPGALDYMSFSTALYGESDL

Biological target: T1, LLGL Scribble cell polarity complex component 2 (LLGL2) (UniProt Q6P1M3)
T1 sequence: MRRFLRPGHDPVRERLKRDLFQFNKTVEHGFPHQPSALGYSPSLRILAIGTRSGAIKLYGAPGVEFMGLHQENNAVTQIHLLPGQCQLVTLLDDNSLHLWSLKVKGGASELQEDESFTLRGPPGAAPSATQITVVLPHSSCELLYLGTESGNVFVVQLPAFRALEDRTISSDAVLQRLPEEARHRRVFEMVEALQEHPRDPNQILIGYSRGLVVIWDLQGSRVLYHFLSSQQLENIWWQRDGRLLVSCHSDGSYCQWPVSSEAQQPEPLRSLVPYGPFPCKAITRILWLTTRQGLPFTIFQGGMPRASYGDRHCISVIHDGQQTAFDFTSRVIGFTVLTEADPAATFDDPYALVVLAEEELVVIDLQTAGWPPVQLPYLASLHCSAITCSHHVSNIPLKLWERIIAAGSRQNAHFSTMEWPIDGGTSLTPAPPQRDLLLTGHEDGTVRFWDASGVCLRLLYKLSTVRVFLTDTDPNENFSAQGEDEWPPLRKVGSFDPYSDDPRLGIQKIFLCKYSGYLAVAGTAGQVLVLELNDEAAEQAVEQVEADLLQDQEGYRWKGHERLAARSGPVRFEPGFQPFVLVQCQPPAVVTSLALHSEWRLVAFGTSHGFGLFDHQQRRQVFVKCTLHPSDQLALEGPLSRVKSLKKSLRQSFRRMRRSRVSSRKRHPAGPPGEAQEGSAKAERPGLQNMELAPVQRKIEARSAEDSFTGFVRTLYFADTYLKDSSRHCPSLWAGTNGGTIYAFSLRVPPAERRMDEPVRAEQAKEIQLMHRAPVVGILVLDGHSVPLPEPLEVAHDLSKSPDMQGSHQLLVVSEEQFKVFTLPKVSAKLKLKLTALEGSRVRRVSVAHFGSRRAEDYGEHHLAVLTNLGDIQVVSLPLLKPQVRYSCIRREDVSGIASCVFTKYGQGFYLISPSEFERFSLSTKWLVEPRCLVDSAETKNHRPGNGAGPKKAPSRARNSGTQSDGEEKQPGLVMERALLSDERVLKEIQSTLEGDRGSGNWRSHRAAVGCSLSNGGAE
Assay: co-IP; 800 μg lysate of LLGL2-overexpressing ES-2 and SKOV3 cells, anti-LLGL2 antibody overnight at 4 °C, protein A/G magnetic beads, PBST washes, Western blot

α-actinin-1 (ACTN1) (from UniProt P12814 1-892)
binding: binds
